This is an account of results in the supplement of paper PMC10849652.

Chains of the proteins cited; added tags and fusions are not shown. Lines headed by an entry give the natural chain unless they say otherwise; changes in a name come on top.
UniProt Q53EL6: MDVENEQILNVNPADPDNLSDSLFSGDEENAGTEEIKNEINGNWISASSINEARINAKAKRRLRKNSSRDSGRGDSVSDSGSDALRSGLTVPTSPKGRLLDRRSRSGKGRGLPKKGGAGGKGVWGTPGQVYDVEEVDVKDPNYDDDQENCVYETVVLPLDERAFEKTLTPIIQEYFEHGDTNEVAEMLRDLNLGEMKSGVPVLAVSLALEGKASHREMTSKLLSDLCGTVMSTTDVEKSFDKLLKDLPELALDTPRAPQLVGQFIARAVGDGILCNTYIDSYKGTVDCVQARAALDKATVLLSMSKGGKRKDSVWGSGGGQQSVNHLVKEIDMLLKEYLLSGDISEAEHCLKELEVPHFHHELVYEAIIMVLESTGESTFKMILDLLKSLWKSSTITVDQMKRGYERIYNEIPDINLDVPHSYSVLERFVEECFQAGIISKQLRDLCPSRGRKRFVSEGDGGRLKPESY
UniProt O95613: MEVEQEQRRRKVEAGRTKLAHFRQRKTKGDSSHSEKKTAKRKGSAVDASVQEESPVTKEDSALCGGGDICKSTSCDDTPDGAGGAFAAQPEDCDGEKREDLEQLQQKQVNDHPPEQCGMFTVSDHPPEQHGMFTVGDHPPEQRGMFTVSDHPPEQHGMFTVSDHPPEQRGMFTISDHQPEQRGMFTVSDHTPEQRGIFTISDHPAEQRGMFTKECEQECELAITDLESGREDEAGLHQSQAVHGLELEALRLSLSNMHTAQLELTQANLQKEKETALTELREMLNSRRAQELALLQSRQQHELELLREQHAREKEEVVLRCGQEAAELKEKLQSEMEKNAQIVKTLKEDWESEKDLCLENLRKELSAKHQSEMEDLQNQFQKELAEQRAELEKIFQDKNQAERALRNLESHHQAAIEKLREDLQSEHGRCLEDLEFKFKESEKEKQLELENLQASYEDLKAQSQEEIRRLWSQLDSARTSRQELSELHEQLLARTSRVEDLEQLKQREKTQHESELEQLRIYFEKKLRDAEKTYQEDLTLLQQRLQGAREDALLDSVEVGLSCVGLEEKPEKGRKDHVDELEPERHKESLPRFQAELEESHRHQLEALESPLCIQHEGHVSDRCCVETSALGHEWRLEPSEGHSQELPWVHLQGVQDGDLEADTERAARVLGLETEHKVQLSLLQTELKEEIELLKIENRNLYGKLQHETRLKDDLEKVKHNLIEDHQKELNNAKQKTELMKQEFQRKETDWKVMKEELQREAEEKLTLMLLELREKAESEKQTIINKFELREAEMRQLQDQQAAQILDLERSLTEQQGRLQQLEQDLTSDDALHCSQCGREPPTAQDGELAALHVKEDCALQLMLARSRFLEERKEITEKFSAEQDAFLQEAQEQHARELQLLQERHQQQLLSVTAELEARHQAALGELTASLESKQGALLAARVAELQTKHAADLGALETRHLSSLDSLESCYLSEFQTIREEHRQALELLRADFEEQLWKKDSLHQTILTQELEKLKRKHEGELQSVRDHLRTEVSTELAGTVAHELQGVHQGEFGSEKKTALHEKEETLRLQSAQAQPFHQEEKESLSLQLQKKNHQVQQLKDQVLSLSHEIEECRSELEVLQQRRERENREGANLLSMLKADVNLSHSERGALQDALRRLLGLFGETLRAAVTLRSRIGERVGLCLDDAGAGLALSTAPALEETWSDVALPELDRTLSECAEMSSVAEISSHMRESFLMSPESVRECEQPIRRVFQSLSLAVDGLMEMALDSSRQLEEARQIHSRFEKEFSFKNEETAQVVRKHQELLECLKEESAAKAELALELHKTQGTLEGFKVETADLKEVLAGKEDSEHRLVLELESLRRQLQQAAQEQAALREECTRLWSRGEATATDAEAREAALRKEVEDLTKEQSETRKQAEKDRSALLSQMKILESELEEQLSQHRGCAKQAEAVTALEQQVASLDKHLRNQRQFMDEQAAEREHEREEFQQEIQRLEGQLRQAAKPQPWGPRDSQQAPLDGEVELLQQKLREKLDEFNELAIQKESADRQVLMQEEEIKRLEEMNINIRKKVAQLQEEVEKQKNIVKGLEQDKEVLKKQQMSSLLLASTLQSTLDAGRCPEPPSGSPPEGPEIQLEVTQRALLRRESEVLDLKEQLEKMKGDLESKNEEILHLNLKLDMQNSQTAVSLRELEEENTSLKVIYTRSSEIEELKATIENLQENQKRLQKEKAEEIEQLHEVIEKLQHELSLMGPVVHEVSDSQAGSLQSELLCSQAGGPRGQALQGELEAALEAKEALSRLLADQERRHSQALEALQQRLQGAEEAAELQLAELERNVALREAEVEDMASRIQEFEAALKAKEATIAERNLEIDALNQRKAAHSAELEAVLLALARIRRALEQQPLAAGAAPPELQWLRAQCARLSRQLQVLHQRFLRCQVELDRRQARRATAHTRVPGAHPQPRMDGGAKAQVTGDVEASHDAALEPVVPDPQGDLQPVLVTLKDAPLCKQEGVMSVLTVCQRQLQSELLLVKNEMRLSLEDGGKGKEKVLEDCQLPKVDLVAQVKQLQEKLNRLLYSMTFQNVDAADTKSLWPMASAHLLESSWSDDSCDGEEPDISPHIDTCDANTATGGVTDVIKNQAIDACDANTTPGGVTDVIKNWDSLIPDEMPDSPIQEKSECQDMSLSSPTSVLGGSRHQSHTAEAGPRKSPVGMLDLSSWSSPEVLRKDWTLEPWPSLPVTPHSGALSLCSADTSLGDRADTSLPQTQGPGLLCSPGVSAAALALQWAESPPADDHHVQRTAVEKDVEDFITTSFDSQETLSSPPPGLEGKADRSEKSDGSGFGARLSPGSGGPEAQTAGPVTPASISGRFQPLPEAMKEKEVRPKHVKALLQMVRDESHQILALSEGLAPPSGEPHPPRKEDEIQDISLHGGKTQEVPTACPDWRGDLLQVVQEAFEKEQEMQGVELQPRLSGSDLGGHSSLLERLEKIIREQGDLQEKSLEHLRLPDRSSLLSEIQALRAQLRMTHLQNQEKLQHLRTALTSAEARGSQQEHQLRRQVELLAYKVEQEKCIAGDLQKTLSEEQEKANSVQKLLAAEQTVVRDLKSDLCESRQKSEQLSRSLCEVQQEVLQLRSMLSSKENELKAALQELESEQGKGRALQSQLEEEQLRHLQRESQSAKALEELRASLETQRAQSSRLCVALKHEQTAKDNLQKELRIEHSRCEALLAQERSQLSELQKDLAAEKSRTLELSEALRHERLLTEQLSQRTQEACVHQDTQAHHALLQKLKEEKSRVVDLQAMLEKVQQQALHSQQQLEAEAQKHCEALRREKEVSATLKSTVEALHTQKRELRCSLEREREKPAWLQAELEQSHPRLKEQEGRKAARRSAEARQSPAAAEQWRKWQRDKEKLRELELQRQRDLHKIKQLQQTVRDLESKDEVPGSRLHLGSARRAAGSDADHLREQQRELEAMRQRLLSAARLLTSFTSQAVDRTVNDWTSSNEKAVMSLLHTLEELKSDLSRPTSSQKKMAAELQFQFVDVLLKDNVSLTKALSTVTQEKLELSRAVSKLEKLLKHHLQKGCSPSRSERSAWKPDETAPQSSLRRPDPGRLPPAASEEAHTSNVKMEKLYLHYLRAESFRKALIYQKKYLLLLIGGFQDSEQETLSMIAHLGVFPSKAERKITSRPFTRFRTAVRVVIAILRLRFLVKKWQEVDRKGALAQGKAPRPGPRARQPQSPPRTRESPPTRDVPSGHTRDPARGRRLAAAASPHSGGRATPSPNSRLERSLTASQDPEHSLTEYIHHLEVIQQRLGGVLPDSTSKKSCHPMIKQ
UniProt Q5EBL8: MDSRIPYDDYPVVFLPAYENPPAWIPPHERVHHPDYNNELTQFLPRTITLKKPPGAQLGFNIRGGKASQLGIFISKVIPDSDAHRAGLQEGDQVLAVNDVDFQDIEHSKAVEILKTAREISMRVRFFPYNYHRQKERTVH
UniProt Q15004: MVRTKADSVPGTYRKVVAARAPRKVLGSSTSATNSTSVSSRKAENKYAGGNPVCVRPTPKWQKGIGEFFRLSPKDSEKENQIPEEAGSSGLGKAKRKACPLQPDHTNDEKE
UniProt P68402: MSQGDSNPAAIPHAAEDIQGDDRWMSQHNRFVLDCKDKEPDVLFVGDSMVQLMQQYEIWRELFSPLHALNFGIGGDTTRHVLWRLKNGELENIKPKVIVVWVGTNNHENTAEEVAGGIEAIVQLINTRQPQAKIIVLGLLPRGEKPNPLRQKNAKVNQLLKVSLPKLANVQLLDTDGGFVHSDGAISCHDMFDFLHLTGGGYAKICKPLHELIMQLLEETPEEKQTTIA
UniProt Q9H4Z3: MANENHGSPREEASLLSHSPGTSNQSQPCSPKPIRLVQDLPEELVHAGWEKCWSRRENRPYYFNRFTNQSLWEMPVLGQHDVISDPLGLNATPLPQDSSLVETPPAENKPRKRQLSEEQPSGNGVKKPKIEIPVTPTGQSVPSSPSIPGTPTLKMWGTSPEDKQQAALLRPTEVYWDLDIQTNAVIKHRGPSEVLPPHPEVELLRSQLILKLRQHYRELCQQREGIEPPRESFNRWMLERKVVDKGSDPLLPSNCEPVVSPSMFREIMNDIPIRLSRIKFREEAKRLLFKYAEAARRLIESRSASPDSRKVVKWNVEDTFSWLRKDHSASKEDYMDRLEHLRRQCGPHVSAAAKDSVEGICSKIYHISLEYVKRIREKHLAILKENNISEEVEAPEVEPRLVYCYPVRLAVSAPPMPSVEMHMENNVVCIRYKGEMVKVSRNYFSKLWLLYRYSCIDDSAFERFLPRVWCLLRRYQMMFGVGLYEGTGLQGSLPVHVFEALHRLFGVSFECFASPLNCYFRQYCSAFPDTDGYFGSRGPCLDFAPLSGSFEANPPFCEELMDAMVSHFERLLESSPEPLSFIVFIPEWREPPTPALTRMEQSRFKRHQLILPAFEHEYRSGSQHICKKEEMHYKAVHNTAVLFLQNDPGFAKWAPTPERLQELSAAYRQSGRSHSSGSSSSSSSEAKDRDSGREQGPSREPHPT
UniProt Q5JVF3: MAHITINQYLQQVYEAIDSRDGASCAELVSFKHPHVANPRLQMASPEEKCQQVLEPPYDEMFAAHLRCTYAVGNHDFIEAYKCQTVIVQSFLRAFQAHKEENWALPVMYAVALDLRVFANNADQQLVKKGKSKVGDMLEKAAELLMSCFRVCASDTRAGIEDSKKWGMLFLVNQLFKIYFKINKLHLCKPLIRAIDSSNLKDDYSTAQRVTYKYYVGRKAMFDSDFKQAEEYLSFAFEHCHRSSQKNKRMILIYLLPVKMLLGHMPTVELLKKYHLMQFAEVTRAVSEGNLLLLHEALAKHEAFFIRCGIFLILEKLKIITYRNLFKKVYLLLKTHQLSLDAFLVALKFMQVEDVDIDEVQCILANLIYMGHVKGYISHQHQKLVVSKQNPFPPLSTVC
UniProt O43924: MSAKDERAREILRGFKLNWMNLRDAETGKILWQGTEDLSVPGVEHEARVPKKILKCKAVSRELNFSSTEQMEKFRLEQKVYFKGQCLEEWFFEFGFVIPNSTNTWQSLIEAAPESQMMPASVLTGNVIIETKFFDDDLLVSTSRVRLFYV
UniProt Q15121, whole entry, looked up: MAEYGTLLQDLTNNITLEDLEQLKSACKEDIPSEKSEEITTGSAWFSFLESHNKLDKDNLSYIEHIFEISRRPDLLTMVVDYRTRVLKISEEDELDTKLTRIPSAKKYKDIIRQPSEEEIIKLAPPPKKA
UniProt Q96KB5: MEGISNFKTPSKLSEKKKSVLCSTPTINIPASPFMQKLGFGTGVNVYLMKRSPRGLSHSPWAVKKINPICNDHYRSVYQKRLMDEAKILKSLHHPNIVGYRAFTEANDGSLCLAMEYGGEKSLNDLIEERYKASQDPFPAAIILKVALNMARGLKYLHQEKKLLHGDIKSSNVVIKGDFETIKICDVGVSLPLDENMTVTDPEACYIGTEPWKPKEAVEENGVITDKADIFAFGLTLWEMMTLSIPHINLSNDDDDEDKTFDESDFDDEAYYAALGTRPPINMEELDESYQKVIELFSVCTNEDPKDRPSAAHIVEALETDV
UniProt O15530: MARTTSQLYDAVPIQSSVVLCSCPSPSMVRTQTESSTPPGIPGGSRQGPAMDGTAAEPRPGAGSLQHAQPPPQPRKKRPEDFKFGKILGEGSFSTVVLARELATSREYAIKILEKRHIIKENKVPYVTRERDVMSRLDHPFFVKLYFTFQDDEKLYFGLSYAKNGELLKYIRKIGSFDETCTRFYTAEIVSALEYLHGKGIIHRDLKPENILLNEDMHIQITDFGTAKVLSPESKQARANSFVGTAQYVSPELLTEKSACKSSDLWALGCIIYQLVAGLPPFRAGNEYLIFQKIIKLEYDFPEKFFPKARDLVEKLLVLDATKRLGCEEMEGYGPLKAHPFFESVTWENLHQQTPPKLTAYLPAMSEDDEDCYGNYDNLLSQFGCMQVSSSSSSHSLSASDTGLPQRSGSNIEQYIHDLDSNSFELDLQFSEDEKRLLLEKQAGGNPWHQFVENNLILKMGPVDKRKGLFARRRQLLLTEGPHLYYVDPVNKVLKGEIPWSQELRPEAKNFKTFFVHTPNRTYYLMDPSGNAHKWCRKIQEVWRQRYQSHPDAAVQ

The other results are listed elsewhere or left out.

Compound in one experiment: CN1CCN(CCOc2cc(OC3CCOCC3)c3c(Nc4c(Cl)ccc5c4OCO5)ncnc3c2)CC1 [saracatinib]
The experiment can be described thus: log2 fold change, soluble protein after heating vs DMSO (PISA); higher = thermal stabilisation; K562 cells, 10 uM, 30 min; active = over 0.2 and 3.5 SD of the protein, either way, in both replicates (recomputed). The essentials: (§1)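 Soluble protein was defined as the supernatant after 21,000xg for 90 min. It came from K562 cells at 2×10^6 cells/mL given 10 μM compound for 30 min, heated in aliquots for 3 min across 48°C-58°C, pooled, and extracted in PBS with 0.5% NP-40 at 4°C, and was quantified by TMTpro 16plex LC-MS/MS with equalised channel sums. Thermal stability against control samples, from duplicates, is reported as log2 fold change.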
As to PCK2 (UniProt Q16822), the log2 fold change was inactive: 0.021.

As for PARG (UniProt Q86W56), the log2 fold change is inactive: 0.003. As to PCBP2 (UniProt F8VRH0), the log2 fold change is inactive: 0.255.

Take PDCD4 (UniProt Q53EL6): the log2 fold change is inactive: -0.008.

Turning to PDLIM7 (UniProt Q9NR12), the log2 fold change is inactive: 0.002. PCYT1B (UniProt Q9Y5K3): the log2 fold change is inactive: 0.133. Still for that read-out and setting: the value for PCNT (UniProt O95613) was inactive: -0.06. As for PDZD11 isoform 2 (UniProt Q5EBL8), the log2 fold change is inactive: -0.068. Still for that read-out and setting: the value for PELP1 (UniProt Q8IZL8) was inactive: -0.002.

Compound in the next experiment: CN1CCN(c2nc(C3=C(c4c[nH]c5ccccc45)C(=O)NC3=O)c3ccccc3n2)CC1 [sotrastaurin]
The description is as above. The essentials:
as §1
As to PARP1 (UniProt P09874), the log2 fold change was inactive: -0.104.

For PCLAF (UniProt Q15004), the log2 fold change was inactive: 0.057. As for PAFAH1B2 (UniProt P68402), the log2 fold change is inactive: 0.097. With PCYT1A (UniProt P49585), the log2 fold change is inactive: -0.105. In the case of PATL1 (UniProt Q86TB9), the log2 fold change was inactive: -0.16. On to PECAM1 (UniProt P16284), for which the log2 fold change is inactive: 0.062.

Regarding PCIF1 (UniProt Q9H4Z3), the log2 fold change is inactive: -0.021.

For the target PCID2 (UniProt Q5JVF3), the log2 fold change was inactive: -0.22.

As for PARL (UniProt Q9H300), the log2 fold change was inactive: 0.019. In the case of PDE2A (UniProt O00408), the log2 fold change was inactive: -0.005.

In the case of PAK4 (UniProt O96013), the log2 fold change was inactive: 0.098. With PAK1 isoform 2 (UniProt Q13153), the log2 fold change is inactive: -0.015. For the target PDE6D (UniProt O43924), the log2 fold change is inactive: 0.035.

With PARN (UniProt O95453), the log2 fold change was inactive: -0.008. For PDS5A (UniProt Q29RF7), the log2 fold change is active: -0.62.

PEX11B (UniProt O96011): the log2 fold change is inactive: -0.009. Regarding PCBP1 (UniProt Q15365), the log2 fold change was inactive: -0.073. With PACS1 (UniProt Q6VY07), the log2 fold change is inactive: -0.043.

Regarding PCBP2 isoform 3 (UniProt Q15366), the log2 fold change is inactive: -0.084. PEA15 isoform 2 (UniProt Q15121): the log2 fold change was inactive: -0.02. Turning to PBX2 (UniProt P40425), the log2 fold change was inactive: -0.023. PBK (UniProt Q96KB5): the log2 fold change was inactive: -0.205. On to PDPK1 (UniProt O15530), for which the log2 fold change was inactive: 0.034. Turning to PCK2 (UniProt Q16822), the log2 fold change is inactive: -0.003. Turning to PARG (UniProt Q86W56), the log2 fold change was inactive: -0.102. As to PCBP2 (UniProt F8VRH0), the log2 fold change was inactive: -0.319. PDCD4 (UniProt Q53EL6): the log2 fold change is inactive: 0.138. Same read-out and setting: the result for PDLIM7 (UniProt Q9NR12) reads inactive: 0.016; that for PCYT1B (UniProt Q9Y5K3), inactive: -0.13; that for PCNT (UniProt O95613), inactive: 0.115. As for PDZD11 isoform 2 (UniProt Q5EBL8), the log2 fold change is inactive: -0.055. For the target PELP1 (UniProt Q8IZL8), the log2 fold change was inactive: -0.007.
